Laboratory results published in US20190300897A1 (INSTITUTE OF GENETICS AND DEVELOPMENTAL BIOLOGY CHINESE …, published 2019).
No constants are given. Whether binding was seen depends on the method and setting. Binding seen in cells or lysates may run through a third protein. Some entries that bind do so weakly or less than the wild type. Where a sequence is shown, tags or fusion partners need not be part of it.

Assays:
MBP-DA2 [1] = molecular target: T1, MBP-DA2 (Arabidopsis, UniProt Q93YV5 1-401); experiment: in vitro pull-down, MBP-DA2 on amylose resin, anti-GST immunoblot
T1 construct: Used as bacterial lysate and held on amylose resin; also called DA2 expressed as a MBP fusion protein; DA2-MBP
T1 sequence: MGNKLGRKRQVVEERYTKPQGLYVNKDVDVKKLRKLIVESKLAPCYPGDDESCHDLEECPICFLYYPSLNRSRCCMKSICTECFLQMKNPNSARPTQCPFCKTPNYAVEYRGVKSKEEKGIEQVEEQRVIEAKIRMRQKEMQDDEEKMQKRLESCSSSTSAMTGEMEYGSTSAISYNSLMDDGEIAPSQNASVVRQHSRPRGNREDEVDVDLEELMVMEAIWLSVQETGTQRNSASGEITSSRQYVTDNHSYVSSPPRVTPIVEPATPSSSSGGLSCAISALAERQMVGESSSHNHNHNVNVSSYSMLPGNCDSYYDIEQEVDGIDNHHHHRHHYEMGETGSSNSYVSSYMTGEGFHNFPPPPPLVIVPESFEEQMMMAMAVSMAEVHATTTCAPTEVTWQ

MBP-DA2 [2] = molecular target: T1, MBP-DA2; experiment: in vitro pull-down, MBP-DA2 on amylose resin, anti-GST immunoblot (legend of FIG. 12)
GFP-DA2 (Arabidopsis) [3] = molecular target: T2, GFP-DA2 (Arabidopsis) (UniProt Q93YV5); experiment: co-immunoprecipitation with GFP-Trap-A from Nicotiana benthamiana leaves, anti-Myc immunoblot
T2 sequence: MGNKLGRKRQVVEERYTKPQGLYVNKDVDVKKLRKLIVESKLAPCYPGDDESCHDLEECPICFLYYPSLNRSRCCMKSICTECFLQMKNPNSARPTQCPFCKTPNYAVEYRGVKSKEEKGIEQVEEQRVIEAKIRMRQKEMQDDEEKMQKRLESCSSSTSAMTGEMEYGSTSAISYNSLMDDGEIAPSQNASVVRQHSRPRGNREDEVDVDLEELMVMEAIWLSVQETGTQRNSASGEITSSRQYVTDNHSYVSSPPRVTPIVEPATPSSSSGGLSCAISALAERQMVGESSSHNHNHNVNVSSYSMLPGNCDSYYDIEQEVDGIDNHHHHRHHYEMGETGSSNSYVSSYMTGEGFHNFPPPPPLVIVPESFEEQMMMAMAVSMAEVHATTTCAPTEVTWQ

GFP-DA2 (Arabidopsis) [4] = molecular target: T2, GFP-DA2 (Arabidopsis); experiment: co-immunoprecipitation with GFP-Trap-A from Nicotiana benthamiana leaves, anti-Myc immunoblot (legend of FIG. 14)
GFP-DA2 (Arabidopsis) [5] = molecular target: T2, GFP-DA2 (Arabidopsis); experiment: co-immunoprecipitation from Nicotiana benthamiana leaves, anti-Myc immunoblot

B1: GST-DA1 (protein, not shown: a dimerising Fc or GST)
chain: MGWFNKIFKGSNQRLRVGNNKHNHNVYYDNYPTASHDDEPSAADTDADNDEPHHTQEPSTSEDNTSNDQENEDIDRAIALSLLEENQEQTSISGKYSMPVDEDEQLARALQESMVVGNSPRHKSGSTYDNGNAYGAGDLYGNGHMYGGGNVYANGDIYYPRPITFQMDFRICAGCNMEIGHGRFLNCLNSLWHPECFRCYGCSQPISEYEFSTSGNYPFHKACYRERYHPKCDVCSHFIPTNHAGLIEYRAHPFWVQKYCPSHEHDATPRCCSCERMEPRNTRYVELNDGRKLCLECLDSAVMDTMQCQPLYLQIQNFYEGLNMKVEQEVPLLLVERQALNEAREGEKNGHYHMPETRGLCLSEEQTVSTVRKRSKHGTGKWAGNITEPYKLTRQCEVTAILILFGLPRLLTGSILAHEMMHAWMRLKGFRTLSQDVEEGICQVMAHKWLDAELAAGSTNSNAASSSSSSQGLKKGPRSQYERKLGEFFKHQIESDASPVYGDGFRAGRLAVHKYGLRKTLEHIQMTGRFPV
MBP-DA2 [1]
  binding: binds
MBP-DA2 [2]
  binding: binds

B2: GST-DA1-LIM+C (protein, not shown: a dimerising Fc or GST)
chain: RICAGCNMEIGHGRFLNCLNSLWHPECFRCYGCSQPISEYEFSTSGNYPFHKACYRERYHPKCDVCSHFIPTNHAGLIEYRAHPFWVQKYCPSHEHDATPRCCSCERMEPRNTRYVELNDGRKLCLECLDSAVMDTMQCQPLYLQIQNFYEGLNMKVEQEVPLLLVERQALNEAREGEKNGHYHMPETRGLCLSEEQTVSTVRKRSKHGTGKWAGNITEPYKLTRQCEVTAILILFGLPRLLTGSILAHEMMHAWMRLKGFRTLSQDVEEGICQVMAHKWLDAELAAGSTNSNAASSSSSSQGLKKGPRSQYERKLGEFFKHQIESDASPVYGDGFRAGRLAVHKYGLRKTLEHIQMTGRFPV
MBP-DA2 [1]
  binding: binds

B3: GST-DA1-C (protein, not shown: a dimerising Fc or GST)
chain: HPKCDVCSHFIPTNHAGLIEYRAHPFWVQKYCPSHEHDATPRCCSCERMEPRNTRYVELNDGRKLCLECLDSAVMDTMQCQPLYLQIQNFYEGLNMKVEQEVPLLLVERQALNEAREGEKNGHYHMPETRGLCLSEEQTVSTVRKRSKHGTGKWAGNITEPYKLTRQCEVTAILILFGLPRLLTGSILAHEMMHAWMRLKGFRTLSQDVEEGICQVMAHKWLDAELAAGSTNSNAASSSSSSQGLKKGPRSQYERKLGEFFKHQIESDASPVYGDGFRAGRLAVHKYGLRKTLEHIQMTGRFPV
MBP-DA2 [1]
  binding: binds

B4: Myc-DA1 (protein, not shown: small tags and cut ends)
chain: MGWFNKIFKGSNQRLRVGNNKHNHNVYYDNYPTASHDDEPSAADTDADNDEPHHTQEPSTSEDNTSNDQENEDIDRAIALSLLEENQEQTSISGKYSMPVDEDEQLARALQESMVVGNSPRHKSGSTYDNGNAYGAGDLYGNGHMYGGGNVYANGDIYYPRPITFQMDFRICAGCNMEIGHGRFLNCLNSLWHPECFRCYGCSQPISEYEFSTSGNYPFHKACYRERYHPKCDVCSHFIPTNHAGLIEYRAHPFWVQKYCPSHEHDATPRCCSCERMEPRNTRYVELNDGRKLCLECLDSAVMDTMQCQPLYLQIQNFYEGLNMKVEQEVPLLLVERQALNEAREGEKNGHYHMPETRGLCLSEEQTVSTVRKRSKHGTGKWAGNITEPYKLTRQCEVTAILILFGLPRLLTGSILAHEMMHAWMRLKGFRTLSQDVEEGICQVMAHKWLDAELAAGSTNSNAASSSSSSQGLKKGPRSQYERKLGEFFKHQIESDASPVYGDGFRAGRLAVHKYGLRKTLEHIQMTGRFPV
GFP-DA2 (Arabidopsis) [3]
  binding: binds
GFP-DA2 (Arabidopsis) [4]
  binding: binds

B5: Myc-DA1-C (protein, not shown: small tags and cut ends)
chain: HPKCDVCSHFIPTNHAGLIEYRAHPFWVQKYCPSHEHDATPRCCSCERMEPRNTRYVELNDGRKLCLECLDSAVMDTMQCQPLYLQIQNFYEGLNMKVEQEVPLLLVERQALNEAREGEKNGHYHMPETRGLCLSEEQTVSTVRKRSKHGTGKWAGNITEPYKLTRQCEVTAILILFGLPRLLTGSILAHEMMHAWMRLKGFRTLSQDVEEGICQVMAHKWLDAELAAGSTNSNAASSSSSSQGLKKGPRSQYERKLGEFFKHQIESDASPVYGDGFRAGRLAVHKYGLRKTLEHIQMTGRFPV
GFP-DA2 (Arabidopsis) [5]
  binding: binds
